Results deposited as PubChem BioAssay AID1224827 (NIAID, 2016)
The deposit covers about 3,800 reagents; below is an unselected part. Of all reagents, about 2,200 (57%) are marked active. 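Active means a strong reporter change in either direction; calls are per siRNA, not per gene; qiagen siRNAs gave weaker effects.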 Entries without a mark were called inactive. Reagents against one gene are numbered here. Not all columns of the deposit are shown.

Test: 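Identify regulators of the macrophage TNF-alpha response to bacterial LPS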 (follow-up of hits)
Cells: RAW264.7 G9 mouse macrophage reporter clone
Reagents: single siRNA against mouse genes, 100 nM siRNA
Time to read-out: siRNA for 2 days, then LPS about 16 h
Challenge: bacterial lipopolysaccharide (LPS), 10 ng/ml, cells fixed after overnight (about 16 h) stimulation
Measured: 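TNF promoter reporter red fluorescence in nuclei, background subtracted, normalised per plate and to non-targeting control siRNA, as z-scores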
Direction: TNF reporter z-score, mean: higher = stronger Tnf promoter reporter signal
Hit rule: 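Active siRNA: replicate-mean z-score of 2 or more, or -2 or less; no calls for control wells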

TNF reporter z-score, mean, by gene and reagent
Rnh1: #1 0.835; #2 -1.26; #3 -3.23 (active); #4 2.47 (active); #5 0.865; #6 -2.22 (active)
Hspa12a: #1 1.3; #2 0.733; #3 -4.84 (active); #4 1.66; #5 0.401; #6 -1.32
Chchd2: #1 -0.228; #2 0.475; #3 -1.09; #4 3.12 (active); #5 2.24 (active); #6 -3.26 (active)
Ttc29: #1 -2.26 (active); #2 -4.01 (active); #3 -4.64 (active); #4 2.91 (active); #5 0.508; #6 -2.03 (active)

Entries listed above marked active:
TNF reporter z-score, mean, by gene and reagent
Rnh1: #3 -3.23 (active); #4 2.47 (active); #6 -2.22 (active)
Hspa12a: #3 -4.84 (active)
Chchd2: #4 3.12 (active); #5 2.24 (active); #6 -3.26 (active)
Ttc29: #1 -2.26 (active); #2 -4.01 (active); #3 -4.64 (active); #4 2.91 (active); #6 -2.03 (active)

Additional reagents:
TNF reporter z-score, mean, by gene and reagent
Mesp2: #1 -3.29 (active); #2 -3.47 (active); #3 -3.84 (active); #4 -0.887; #5 -2.99 (active); #6 -3.67 (active)
Ppp1r3c: #1 4.88 (active); #2 -1.64; #3 -3.6 (active); #4 3.89 (active); #5 1.46; #6 0.253
Lrrc59: #1 -1.35; #2 -3.05 (active); #3 -4.73 (active); #4 4.57 (active); #5 -0.167; #6 -0.733
Ifi30: #1 -1.41; #2 -3.76 (active); #3 -4.77 (active); #4 2.41 (active); #5 0.213; #6 -1.09
Gatm: #1 5.55 (active); #2 4.6 (active); #3 -4.54 (active); #4 1.11; #5 0.838; #6 -0.32
Grhl1: #1 -3.86 (active); #2 -3.92 (active); #3 -5.95 (active); #4 0.141; #5 -0.603; #6 -3.36 (active)
